# Data taken from the supplement of paper PMC12067093, “Discovery and optimisation of a covalent ligand for TRIM25 and its application to targeted protein ubiquitination” (Chemical Science, 2025).
# This is one part of the list.
# Compound: CC1Cc2ccccc2N1C(=O)C1CCCN(C1)C(=O)CCl (mixture of isomers) [TRIM25 ligand 11 (diastereomer mixture)]
# Assay: probe-labelled cysteine peptide fold change vs DMSO (competition) (log2 fold change); higher = less target engagement (more negative = stronger competition)
# Settings: THP-1, incubation time: 4 h
# 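Further: competitive chemoproteomic profiling in live THP-1 cells with an iodoacetamide desthiobiotin (IA-DTB) probe, comparing probe-labelled peptide intensities in compound-treated cells against DMSO-treated controls.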
Target,probe-labelled cysteine peptide fold change (10 µM),probe-labelled cysteine peptide fold change (50 µM)
HERC4_Q5GLZ8_175_YGQLGLGTDCK (UniProt Q5GLZ8),0.042,0.0507
HERC4_Q5GLZ8_60_HTVFVLDDGTVYTCGCNDLGQLGHEK (UniProt Q5GLZ8),0.0766,-0.129
HECTD1_Q9ULT8_1855_LLQLSCNGNVK (UniProt Q9ULT8),-0.105,0.169
HDDC3_Q8N4P3_133_CTPEGWSEHR (UniProt Q8N4P3),0.0778,-0.158
HK3_P52790_634_ASDCEGQDVVSLLR (UniProt P52790),0.0738,0.0237
HEATR5B_Q9P2D3_616_AGALCAMR (UniProt Q9P2D3),0.0353,0.091
HECTD1_Q9ULT8_1389_KGSSSSVCSVASSSDISLGSTK (UniProt Q9ULT8),0.0993,-0.225
HERC4_Q5GLZ8_144_SLSDIQIVQVACGYYHSLALSK (UniProt Q5GLZ8),-0.108,-0.0712
HK2_P52789_133_GSGTQLFDHIAECLANFMDK (UniProt P52789),0.165,-0.083
HK1_P19367_158_LPVGFTFSFPCQQSK (UniProt P19367),-0.0245,-0.0167
HERC1_Q15751_4811_VDRPYDSLPTSQTCFFQLR (UniProt Q15751),0.00422,-0.181
HDAC1_Q13547_273_LGCFNLTIK (UniProt Q13547),-0.0483,0.18
HDDC2_Q7Z4H3_82_LALVHDMAECIVGDIAPADNIPK (UniProt Q7Z4H3),0.0684,0.121
HEATR5B_Q9P2D3_471_CVAVALPFQLTPFLDR (UniProt Q9P2D3),-0.108,0.0569
HEBP1_Q9NRV9_168_GDIYFCTGYDPPMKPYGR (UniProt Q9NRV9),-0.405,-0.374
HCFC1_P51610_149_CYLFGGLANDSEDPK (UniProt P51610),0.0473,0.173
HEATR5B_Q9P2D3_1166_KLCSDIHDTLGHMLSSLAVEK (UniProt Q9P2D3),-0.144,-0.337
HECTD1_Q9ULT8_146_ESGAVFEAGGLNCVLTFIR (UniProt Q9ULT8),0.264,-0.0494
HINT1_P49773_38_IIFEDDRCLAFHDISPQAPTHFLVIPK (UniProt P49773),-0.447,-0.249
HELZ_P42694_80_NYVQADEDCR (UniProt P42694),0.0578,-0.0565
HDAC10_Q969S8_23_LLWDDPECEIERPER (UniProt Q969S8),-0.046,-0.127

Target,probe-labelled cysteine peptide fold change (10 µM),probe-labelled cysteine peptide fold change (50 µM)
HDAC8_Q9BY41_352_TLSSEIPDHEFFTAYGPDYVLEITPSCRPDR (UniProt Q9BY41),-0.222,0.0231
HAUS7_Q99871_50_DLNCPFLEGLYITEPK (UniProt Q99871),0.142,0.0811
HEATR3_Q7Z4Q2_585_NIGCFLLEVTTK (UniProt Q7Z4Q2),0.0622,0.0683
HEATR6_Q6AI08_232_SSDMDDITFCMLLQNALK (UniProt Q6AI08),-0.0289,-0.0445
HERC2_O95714_3979_VPTPCEALATLRPVQLIGGEQTLFAVTADGK (UniProt O95714),-0.393,0.0471
HECTD4_Q9Y4D8_3836_ELQNVECVTAVR (UniProt Q9Y4D8),0.234,-0.027
HCCS_P53701_178_WEALHAAECPCGPSLIR (UniProt P53701),0.00235,-0.016
HGS_O14964_75_NCGQTVHDEVANK (UniProt O14964),0.0888,0.168
HIGD2A_Q9BW72_53_TRENPVVPIGCLATAAALTYGLYSFHR (UniProt Q9BW72),0.153,0.158
HMG20B_Q9P0W2_177_GGDCDGFSTFDVPIFTEEFLDQNK (UniProt Q9P0W2),0.000124,-0.247
HDLBP_Q00341_948_RCDIIIISGR (UniProt Q00341),-0.0356,0.00275
HK1_P19367_834_RAAQLCGAGMAAVVDK (UniProt P19367),-0.0979,0.0581
HECTD4_Q9Y4D8_757_AMWGFACTVR (UniProt Q9Y4D8),0.0189,0.28
HECTD1_Q9ULT8_1127_DNSALNCHSNDDK (UniProt Q9ULT8),-0.0216,-0.0197
HAUS7_Q99871_119_LGHELMLCAPDDQELLK (UniProt Q99871),0.257,0.164
HELZ_P42694_601_LPLCEMHYALDR (UniProt P42694),0.0449,0.0767
HERC5_Q9UII4_468_DWITNMITTCLK (UniProt Q9UII4),-0.0109,0.0155
HELZ_P42694_199_YGAQCTSAHSQEELAEWQK (UniProt P42694),0.211,0.129
HECTD1_Q9ULT8_187_MEPQDSSLEICVESLSSLLK (UniProt Q9ULT8),-0.019,-0.114
HLA-A_P01891_363_GGSYSQAASSDSAQGSDVSLTACK (UniProt P01891),0.214,-0.0167
HIP1_O00291_906_GKFEELMVCSHEIAASTAQLVAASK (UniProt O00291),0.057,0.00218

Target,probe-labelled cysteine peptide fold change (10 µM),probe-labelled cysteine peptide fold change (50 µM)
HERC2_O95714_3865_VLVALACDLELDTLPCCAETHK (UniProt O95714),-0.19,0.12
HAUS6_Q7Z4H7_662_VISDCECVPQK (UniProt Q7Z4H7),-0.149,0.059
HCFC2_Q9Y5Z7_215_MYVFGGMCGAR (UniProt Q9Y5Z7),-0.0963,-0.113
HEATR3_Q7Z4Q2_20_RPQFSPTGDCQAEAAAAANGTGGEEDDGPAAELLEK (UniProt Q7Z4Q2),0.15,-0.284
HERC1_Q15751_3849_QQGVLGLNMAPCMR (UniProt Q15751),-0.0714,0.0192
HERC1_Q15751_1991_LFSLLSDCMWETPIAQAK (UniProt Q15751),0.0771,-0.277
HK1_P19367_886_CNVSFLLSEDGSGK (UniProt P19367),-0.12,0.0454
HEATR5B_Q9P2D3_1693_EACTVLGEGGDSGGLIPGK (UniProt Q9P2D3),0.31,0.173
HECTD3_Q5T447_592_DMYVPNPSCR (UniProt Q5T447),0.131,0.0493
HDAC6_Q9UBN7_407_ALAEGVSASLHTLLGDPCPMLESPGAPCR (UniProt Q9UBN7),0.00604,-0.069
HAUS8_Q9BT25_182_NLLIMCK (UniProt Q9BT25),-0.169,-0.102
HLA-DRA_P01903_188_KFHYLPFLPSTEDVYDCR,-0.0824,0.0791
HAUS6_Q7Z4H7_185_QDCVTQK (UniProt Q7Z4H7),0.0137,0.127
HBS1L_Q9Y450_491_LCVSDVFK (UniProt Q9Y450),0.0459,0.0956
HDAC4_P56524_667_HQCTCGSSSSHPEHAGR (UniProt P56524),0.349,0.0146
HEATR1_Q9H583_1263_QLILSCLLNICQK (UniProt Q9H583),-0.253,-0.21
HECTD4_Q9Y4D8_3446_CACIDVR (UniProt Q9Y4D8),0.0852,0.059
HDHD3_Q9BSH5_109_DFSHPCTWQVLDGAEDTLR (UniProt Q9BSH5),0.124,-0.0467
HECA_Q9UBI9_434_ALPVFEQFPLVDGTLFLSPSRHDEIEYDVPCHLQGR (UniProt Q9UBI9),0.409,0.382
HECTD1_Q9ULT8_1955_DFCEHGTK (UniProt Q9ULT8),-0.0514,0.0886
HINT1_P49773_84_CAADLGLNK (UniProt P49773),-0.0851,-0.0398

Target,probe-labelled cysteine peptide fold change (10 µM),probe-labelled cysteine peptide fold change (50 µM)
HIRIP3_Q9BW71_449+450_LLGSCCSHK (UniProt Q9BW71),-0.0235,-0.0205
HLA-C_P04222_345_GGSCSQAASSNSAQGSDESLIACK (UniProt P04222),0.0789,0.041
HIBCH_Q6NVY1_95_AFCAGGDIR (UniProt Q6NVY1),-0.0665,0.0371
HIP1_O00291_430_QQAADDCEFLR (UniProt O00291),-0.06,-0.194
HGS_O14964_190_ACGQIFCGK (UniProt O14964),-0.0284,-0.0925
HCK_P08631_234_GNDGLCQK (UniProt P08631),0.0165,-0.065
HLA-DRA_P01903_132_EPNVLICFIDK,0.0291,0.183
HDAC6_Q9UBN7_539_CLTLTPRPATEAELLTCHSAEYVGHLR (UniProt Q9UBN7),-0.144,-0.0793
HDAC10_Q969S8_663_MLQCHPHLVA (UniProt Q969S8),-0.134,0.0418
HELQ_Q8TDG4_149_HATDFATENLCSESIK (UniProt Q8TDG4),-0.104,-0.000735
HECTD1_Q9ULT8_762_LTVGNWSLTCLK (UniProt Q9ULT8),0.0153,0.094
HECTD1_Q9ULT8_131_VLELICTR (UniProt Q9ULT8),0.0591,0.175
HDAC10_Q969S8_102_EELQALSGQFDAIYFHPSTFHCAR (UniProt Q969S8),0.0847,-0.172
HDHD2_Q9H0R4_244_INPPPYLTCESFPHAVDHILQHLL (UniProt Q9H0R4),0.0838,-0.0416
HERC4_Q5GLZ8_392_CPNPTK (UniProt Q5GLZ8),0.045,-0.0661
HLA-DRB5_Q30154_146_TQTLQHHNLLVCSVNGFYPGSIEVR (UniProt Q30154),-0.132,-0.111
HK2_P52789_628_ASGCEGEDVVTLLK (UniProt P52789),-0.0603,0.0614
HDAC10_Q969S8_102_ETQVLGKEELQALSGQFDAIYFHPSTFHCAR (UniProt Q969S8),0.167,-0.202
HEATR3_Q7Z4Q2_173_NSIENIANETVNVLWNICECSSR (UniProt Q7Z4Q2),0.0592,0.206
